From the supplement of paper PMC11732987, “Enantioselective OTUD7B fragment discovery through chemoproteomics screening and high-throughput optimisation” (Communications Chemistry, 2025)
The list shows a part of the results. The data scatter; read single values as rough.

Amino acid sequences for entries named in this document (tags omitted). A change or cut given only in a name is not applied to a line headed by its entry. Residues count along the entry.
UniProt Q9Y5T5: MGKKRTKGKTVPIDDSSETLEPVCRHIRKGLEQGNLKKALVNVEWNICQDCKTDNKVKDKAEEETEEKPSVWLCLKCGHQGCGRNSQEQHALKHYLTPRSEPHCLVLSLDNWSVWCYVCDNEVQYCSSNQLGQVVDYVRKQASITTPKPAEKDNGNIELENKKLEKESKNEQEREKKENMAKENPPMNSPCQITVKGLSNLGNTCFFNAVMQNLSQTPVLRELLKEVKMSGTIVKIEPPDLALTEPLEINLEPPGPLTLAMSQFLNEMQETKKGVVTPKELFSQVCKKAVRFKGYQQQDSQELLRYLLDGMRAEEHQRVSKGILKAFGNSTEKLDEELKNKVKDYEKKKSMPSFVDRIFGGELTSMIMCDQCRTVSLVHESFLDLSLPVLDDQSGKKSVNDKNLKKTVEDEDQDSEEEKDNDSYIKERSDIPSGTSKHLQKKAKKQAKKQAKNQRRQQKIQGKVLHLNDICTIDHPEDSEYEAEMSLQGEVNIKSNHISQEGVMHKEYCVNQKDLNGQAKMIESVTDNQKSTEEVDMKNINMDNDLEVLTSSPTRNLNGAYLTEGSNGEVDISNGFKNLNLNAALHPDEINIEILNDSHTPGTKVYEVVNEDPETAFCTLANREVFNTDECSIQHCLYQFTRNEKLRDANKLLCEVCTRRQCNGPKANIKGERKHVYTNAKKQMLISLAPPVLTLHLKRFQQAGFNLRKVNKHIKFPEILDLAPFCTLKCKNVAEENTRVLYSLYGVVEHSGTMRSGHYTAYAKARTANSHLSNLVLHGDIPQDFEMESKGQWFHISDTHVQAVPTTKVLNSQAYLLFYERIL
UniProt O75691: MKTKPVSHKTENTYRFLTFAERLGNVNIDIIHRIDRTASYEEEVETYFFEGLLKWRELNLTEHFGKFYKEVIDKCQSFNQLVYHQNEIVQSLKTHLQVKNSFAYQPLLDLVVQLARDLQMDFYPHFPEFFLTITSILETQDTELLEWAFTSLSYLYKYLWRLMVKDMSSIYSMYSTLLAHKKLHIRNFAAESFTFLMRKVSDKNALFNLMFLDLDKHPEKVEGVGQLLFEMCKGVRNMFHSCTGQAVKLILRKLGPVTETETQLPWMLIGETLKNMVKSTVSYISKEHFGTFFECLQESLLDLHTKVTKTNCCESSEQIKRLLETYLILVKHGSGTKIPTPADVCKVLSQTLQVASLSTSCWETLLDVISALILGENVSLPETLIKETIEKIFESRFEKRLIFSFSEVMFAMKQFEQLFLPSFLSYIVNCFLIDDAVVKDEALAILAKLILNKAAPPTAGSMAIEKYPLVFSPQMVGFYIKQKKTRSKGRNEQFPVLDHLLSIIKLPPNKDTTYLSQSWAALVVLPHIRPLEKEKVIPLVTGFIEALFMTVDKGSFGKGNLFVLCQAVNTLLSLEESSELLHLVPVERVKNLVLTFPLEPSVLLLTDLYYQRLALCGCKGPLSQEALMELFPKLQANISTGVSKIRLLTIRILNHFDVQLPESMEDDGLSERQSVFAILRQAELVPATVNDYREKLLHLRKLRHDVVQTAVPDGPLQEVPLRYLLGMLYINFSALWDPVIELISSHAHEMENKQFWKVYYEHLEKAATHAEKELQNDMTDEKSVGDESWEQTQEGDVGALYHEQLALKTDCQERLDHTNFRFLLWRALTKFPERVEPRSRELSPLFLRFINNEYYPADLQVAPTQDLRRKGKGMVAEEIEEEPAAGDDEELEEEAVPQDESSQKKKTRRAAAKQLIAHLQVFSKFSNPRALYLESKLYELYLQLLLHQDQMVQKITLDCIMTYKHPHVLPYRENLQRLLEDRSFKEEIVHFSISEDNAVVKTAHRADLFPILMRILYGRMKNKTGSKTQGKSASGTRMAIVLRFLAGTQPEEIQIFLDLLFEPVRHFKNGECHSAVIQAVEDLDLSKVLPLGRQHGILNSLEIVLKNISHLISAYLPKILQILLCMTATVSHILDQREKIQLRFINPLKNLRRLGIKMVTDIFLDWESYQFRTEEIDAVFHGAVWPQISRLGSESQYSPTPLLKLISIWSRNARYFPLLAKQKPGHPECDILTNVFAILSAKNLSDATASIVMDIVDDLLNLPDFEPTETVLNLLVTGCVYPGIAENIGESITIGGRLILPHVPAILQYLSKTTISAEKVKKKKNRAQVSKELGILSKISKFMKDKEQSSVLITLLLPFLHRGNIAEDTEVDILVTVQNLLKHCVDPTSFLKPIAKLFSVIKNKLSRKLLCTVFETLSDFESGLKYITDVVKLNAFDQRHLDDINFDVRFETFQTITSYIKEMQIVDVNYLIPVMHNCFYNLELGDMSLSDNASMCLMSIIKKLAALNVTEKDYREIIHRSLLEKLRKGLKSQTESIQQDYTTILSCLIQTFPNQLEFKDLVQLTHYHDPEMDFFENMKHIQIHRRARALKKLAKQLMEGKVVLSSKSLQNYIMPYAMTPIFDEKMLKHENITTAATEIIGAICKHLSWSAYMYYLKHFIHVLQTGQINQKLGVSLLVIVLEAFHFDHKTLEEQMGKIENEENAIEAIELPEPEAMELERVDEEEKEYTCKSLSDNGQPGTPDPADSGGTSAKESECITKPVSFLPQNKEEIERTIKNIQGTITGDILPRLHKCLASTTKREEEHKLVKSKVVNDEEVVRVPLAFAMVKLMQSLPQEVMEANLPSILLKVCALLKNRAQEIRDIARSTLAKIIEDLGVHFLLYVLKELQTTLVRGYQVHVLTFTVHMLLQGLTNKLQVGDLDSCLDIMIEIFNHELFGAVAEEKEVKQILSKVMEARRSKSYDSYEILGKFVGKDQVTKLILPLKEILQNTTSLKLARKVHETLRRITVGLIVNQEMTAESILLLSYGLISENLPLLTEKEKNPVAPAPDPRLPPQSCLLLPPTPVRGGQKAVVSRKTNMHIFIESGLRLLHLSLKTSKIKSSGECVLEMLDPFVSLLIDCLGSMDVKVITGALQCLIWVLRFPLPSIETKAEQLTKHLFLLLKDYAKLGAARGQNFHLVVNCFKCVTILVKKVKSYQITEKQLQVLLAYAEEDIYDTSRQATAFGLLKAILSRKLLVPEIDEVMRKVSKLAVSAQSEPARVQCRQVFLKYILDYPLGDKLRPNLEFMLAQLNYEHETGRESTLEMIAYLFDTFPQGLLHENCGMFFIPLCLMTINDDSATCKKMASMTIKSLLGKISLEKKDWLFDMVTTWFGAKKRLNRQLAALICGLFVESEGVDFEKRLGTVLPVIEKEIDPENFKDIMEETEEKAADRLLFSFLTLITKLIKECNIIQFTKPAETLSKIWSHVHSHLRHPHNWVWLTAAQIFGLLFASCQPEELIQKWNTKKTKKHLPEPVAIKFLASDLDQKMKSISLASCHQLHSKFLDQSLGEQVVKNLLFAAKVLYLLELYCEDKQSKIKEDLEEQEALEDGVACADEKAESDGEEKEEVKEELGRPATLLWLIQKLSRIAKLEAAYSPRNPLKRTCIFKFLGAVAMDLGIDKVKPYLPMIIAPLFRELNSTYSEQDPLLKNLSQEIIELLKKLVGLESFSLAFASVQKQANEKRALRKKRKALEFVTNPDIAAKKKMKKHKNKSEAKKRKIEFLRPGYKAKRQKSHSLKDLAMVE
UniProt Q93008, whole entry, looked up: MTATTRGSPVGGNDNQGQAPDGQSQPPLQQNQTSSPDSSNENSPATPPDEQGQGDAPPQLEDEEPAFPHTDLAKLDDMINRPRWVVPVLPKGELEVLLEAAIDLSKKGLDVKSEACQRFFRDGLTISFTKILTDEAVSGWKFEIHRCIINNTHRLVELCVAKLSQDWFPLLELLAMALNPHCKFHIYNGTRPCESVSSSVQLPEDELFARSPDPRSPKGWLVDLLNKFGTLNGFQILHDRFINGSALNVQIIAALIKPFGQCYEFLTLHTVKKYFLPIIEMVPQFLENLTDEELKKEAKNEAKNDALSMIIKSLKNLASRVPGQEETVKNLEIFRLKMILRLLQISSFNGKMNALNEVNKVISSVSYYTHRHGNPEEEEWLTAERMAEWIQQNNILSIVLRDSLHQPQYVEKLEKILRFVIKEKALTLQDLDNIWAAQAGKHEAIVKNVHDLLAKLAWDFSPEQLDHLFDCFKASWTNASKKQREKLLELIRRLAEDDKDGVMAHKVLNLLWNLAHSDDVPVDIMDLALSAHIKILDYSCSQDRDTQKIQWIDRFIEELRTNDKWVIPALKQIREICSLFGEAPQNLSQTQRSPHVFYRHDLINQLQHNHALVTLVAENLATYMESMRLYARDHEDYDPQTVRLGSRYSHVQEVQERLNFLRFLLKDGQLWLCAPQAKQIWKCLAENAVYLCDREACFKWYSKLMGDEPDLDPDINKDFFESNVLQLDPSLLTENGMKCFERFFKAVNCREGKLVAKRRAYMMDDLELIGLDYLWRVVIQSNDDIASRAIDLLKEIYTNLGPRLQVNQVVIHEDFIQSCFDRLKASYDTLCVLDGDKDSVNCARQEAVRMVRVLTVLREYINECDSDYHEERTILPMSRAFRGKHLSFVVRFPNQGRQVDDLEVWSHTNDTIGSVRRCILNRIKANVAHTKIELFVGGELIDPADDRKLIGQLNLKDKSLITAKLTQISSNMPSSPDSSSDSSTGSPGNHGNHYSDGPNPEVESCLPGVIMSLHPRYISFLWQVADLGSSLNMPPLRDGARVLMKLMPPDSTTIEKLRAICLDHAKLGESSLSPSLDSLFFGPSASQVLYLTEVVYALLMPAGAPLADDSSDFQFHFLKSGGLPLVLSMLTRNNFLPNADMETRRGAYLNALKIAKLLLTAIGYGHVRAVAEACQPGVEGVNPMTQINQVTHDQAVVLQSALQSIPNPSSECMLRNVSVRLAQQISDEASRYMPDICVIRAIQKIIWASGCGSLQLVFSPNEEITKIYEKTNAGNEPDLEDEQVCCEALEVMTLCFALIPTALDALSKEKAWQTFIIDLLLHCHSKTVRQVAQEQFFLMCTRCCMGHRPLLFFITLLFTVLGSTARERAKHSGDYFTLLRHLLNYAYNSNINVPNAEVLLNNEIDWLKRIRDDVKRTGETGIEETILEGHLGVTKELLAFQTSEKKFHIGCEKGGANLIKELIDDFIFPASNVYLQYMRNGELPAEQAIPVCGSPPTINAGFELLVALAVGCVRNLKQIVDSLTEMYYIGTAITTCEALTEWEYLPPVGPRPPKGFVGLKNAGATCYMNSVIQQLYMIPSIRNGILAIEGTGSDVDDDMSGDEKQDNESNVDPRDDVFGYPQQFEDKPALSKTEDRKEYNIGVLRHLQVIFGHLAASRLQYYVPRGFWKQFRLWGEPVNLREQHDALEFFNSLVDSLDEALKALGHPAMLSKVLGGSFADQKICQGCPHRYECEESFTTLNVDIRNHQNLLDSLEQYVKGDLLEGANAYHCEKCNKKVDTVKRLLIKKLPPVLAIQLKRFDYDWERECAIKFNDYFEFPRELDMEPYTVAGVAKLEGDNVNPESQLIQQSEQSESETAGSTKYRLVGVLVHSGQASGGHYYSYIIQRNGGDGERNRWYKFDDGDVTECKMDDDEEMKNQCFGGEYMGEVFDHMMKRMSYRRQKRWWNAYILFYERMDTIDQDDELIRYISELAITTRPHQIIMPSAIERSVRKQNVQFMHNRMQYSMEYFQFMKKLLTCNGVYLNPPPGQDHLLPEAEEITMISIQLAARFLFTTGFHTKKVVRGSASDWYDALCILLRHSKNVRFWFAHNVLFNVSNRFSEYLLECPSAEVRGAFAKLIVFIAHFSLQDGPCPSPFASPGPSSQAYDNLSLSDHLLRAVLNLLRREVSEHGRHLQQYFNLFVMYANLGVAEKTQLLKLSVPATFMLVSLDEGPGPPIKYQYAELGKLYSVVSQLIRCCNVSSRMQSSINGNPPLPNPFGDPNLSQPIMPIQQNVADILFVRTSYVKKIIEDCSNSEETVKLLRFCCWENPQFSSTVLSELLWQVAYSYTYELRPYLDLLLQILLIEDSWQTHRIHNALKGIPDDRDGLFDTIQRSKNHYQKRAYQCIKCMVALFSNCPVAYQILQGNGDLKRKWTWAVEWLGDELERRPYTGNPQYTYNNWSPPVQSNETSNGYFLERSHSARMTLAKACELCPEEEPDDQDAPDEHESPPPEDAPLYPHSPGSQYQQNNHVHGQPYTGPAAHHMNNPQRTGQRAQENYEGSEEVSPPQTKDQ
UniProt O95071, 605-632: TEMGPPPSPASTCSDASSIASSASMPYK
UniProt Q9Y277: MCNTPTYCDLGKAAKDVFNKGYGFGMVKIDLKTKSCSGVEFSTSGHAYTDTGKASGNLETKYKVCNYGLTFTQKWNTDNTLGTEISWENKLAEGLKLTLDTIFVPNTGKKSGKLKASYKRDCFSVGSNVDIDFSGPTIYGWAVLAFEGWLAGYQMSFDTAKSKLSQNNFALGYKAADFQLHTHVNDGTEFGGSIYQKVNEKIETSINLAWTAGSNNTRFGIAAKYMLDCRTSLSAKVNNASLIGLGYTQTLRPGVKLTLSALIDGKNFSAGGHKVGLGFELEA
UniProt P07919: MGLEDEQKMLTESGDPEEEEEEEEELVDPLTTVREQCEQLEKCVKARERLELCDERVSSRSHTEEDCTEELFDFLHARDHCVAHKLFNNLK
UniProt Q16831, 139-164: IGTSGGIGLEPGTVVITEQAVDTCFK

Compound: ClCC(=O)N[C@@H]1CCCc2ccccc12
Assay: log2 mean competition ratio of IA-DTB cysteine labelling (DMSO/compound) (log2 ratio); higher = stronger cysteine engagement by compound
Details: 50 µM; treatment time: 4 h; cell line lysate: HEK293T
Experimental: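 IA-DTB competitive cysteine chemoproteomics in HEK293T RIPA lysate. Lysates were treated with compound 29 or 30 at 50 or 200 µM for 4 h, then IA-DTB (500 µM, 1 h), trypsin-digested, NeutrAvidin-enriched and analysed by diaPASEF. Competition ratio = intensity DMSO / intensity compound (n=4 treated, n=64 DMSO); binding: mean log2 CR ≥ 1 and p ≤ 0.05 plus QC filters. Target is the cysteine site.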

USP34 C1380 (UniProt Q70CQ2) was tested. Which “log2 mean competition ratio” value did it give?
Its value is 0.0685.

How did the “log2 mean competition ratio” value turn out when USP22 C494 (UniProt Q9UPT9) was run?
Its value is -0.153.

Which “log2 mean competition ratio” value does the source give for VPS11 C734 (UniProt Q9H270) here?
Its value is -0.314.

For USP16 C24 (UniProt Q9Y5T5), which “log2 mean competition ratio” value is on record?
The value was -0.251.

How did the “log2 mean competition ratio” value turn out when USP5 C195 was run?
Its value is -0.16.

How did the “log2 mean competition ratio” value turn out when UTP20 C1794 (UniProt O75691) was run?
Its value is 0.137.

How did the “log2 mean competition ratio” value turn out when UTP15 C385 (UniProt Q8TED0) was run?
Its value is -0.158.

For VAPB C173 (UniProt O95292), which “log2 mean competition ratio” value is on record?
The value was 0.0357.

ULK3 C308 (UniProt Q6PHR2) was tested. Which “log2 mean competition ratio” value did it give?
The value was 0.0462.

With UTRN C862 (UniProt P46939) as the target, how does the “log2 mean competition ratio” value read?
Its value is 0.11.

Same assay, conditions: 200 µM; treatment time: 4 h; cell line lysate: HEK293T

For UNC13B C655 (UniProt O14795), which “log2 mean competition ratio” value is on record?
Its value is 0.131.

How did the “log2 mean competition ratio” value turn out when UFSP2 C302 (UniProt Q9NUQ7) was run?
The value was -0.299.

Which “log2 mean competition ratio” value does the source give for USP34 C1330 (UniProt Q70CQ2) here?
Its value is -0.271.

With UCKL1 C35 (UniProt Q9NWZ5) as the target, how does the “log2 mean competition ratio” value read?
The value was 0.0208.

Which “log2 mean competition ratio” value does the source give for USP9X C1237 (UniProt Q93008) here?
Its value is 0.23.

Which “log2 mean competition ratio” value does the source give for USP47 C856 (UniProt Q96K76) here?
The value was 0.127.

For UBR5 C617 (UniProt O95071), which “log2 mean competition ratio” value is on record?
Its value is -0.381.

With UNC45A C927 (UniProt Q9H3U1) as the target, how does the “log2 mean competition ratio” value read?
The value was -0.0557.

USP9X C1908 (UniProt Q93008) was tested. Which “log2 mean competition ratio” value did it give?
The value was 0.162.

VAV3 C187 (UniProt Q9UKW4) was tested. Which “log2 mean competition ratio” value did it give?
The value was 0.341.

With USO1 C303 (UniProt O60763) as the target, how does the “log2 mean competition ratio” value read?
The value was 0.215.

VDAC3 C36 (UniProt Q9Y277) was tested. Which “log2 mean competition ratio” value did it give?
The value was -0.171.

How did the “log2 mean competition ratio” value turn out when UQCRH C37 (UniProt P07919) was run?
The value was 0.197.

Which “log2 mean competition ratio” value does the source give for VCP C522 (UniProt P55072) here?
The value was -0.0182.

For USP3 C362 (UniProt Q9Y6I4), which “log2 mean competition ratio” value is on record?
The value was 0.252.

UHRF1 C305 (UniProt Q96T88) was tested. Which “log2 mean competition ratio” value did it give?
Its value is 0.0876.

Which “log2 mean competition ratio” value does the source give for URB2 C702 (UniProt Q14146) here?
The value was -0.421.

USP9X C864 (UniProt Q93008) was tested. Which “log2 mean competition ratio” value did it give?
The value was -0.156.

With USP8 C809 (UniProt P40818) as the target, how does the “log2 mean competition ratio” value read?
Its value is 0.189.

UTP20 C345 (UniProt O75691) was tested. Which “log2 mean competition ratio” value did it give?
The value was 0.138.

Which “log2 mean competition ratio” value does the source give for UNC45A C118 (UniProt Q9H3U1) here?
Its value is -0.133.

Which “log2 mean competition ratio” value does the source give for UNC45B C207 here?
Its value is -0.0373.

How did the “log2 mean competition ratio” value turn out when URI1 C44 (UniProt O94763) was run?
The value was -0.119.

Which “log2 mean competition ratio” value does the source give for UPP1 C162 (UniProt Q16831) here?
The value was 0.119.

For USP7 C334, which “log2 mean competition ratio” value is on record?
The value was 0.067.

With USP16 C618 (UniProt Q9Y5T5) as the target, how does the “log2 mean competition ratio” value read?
Its value is -0.00289.

With UQCRH C53 (UniProt P07919) as the target, how does the “log2 mean competition ratio” value read?
Its value is 0.173.

How did the “log2 mean competition ratio” value turn out when USP34 C1380 (UniProt Q70CQ2) was run?
The value was 0.131.

How did the “log2 mean competition ratio” value turn out when USP22 C494 (UniProt Q9UPT9) was run?
The value was 0.549.

VPS11 C734 (UniProt Q9H270) was tested. Which “log2 mean competition ratio” value did it give?
Its value is 0.105.

How did the “log2 mean competition ratio” value turn out when USP16 C24 (UniProt Q9Y5T5) was run?
Its value is -0.0943.

USP5 C195 was tested. Which “log2 mean competition ratio” value did it give?
Its value is -0.151.

With UTP20 C1794 (UniProt O75691) as the target, how does the “log2 mean competition ratio” value read?
Its value is -0.242.

For UTP15 C385 (UniProt Q8TED0), which “log2 mean competition ratio” value is on record?
Its value is -0.123.

Which “log2 mean competition ratio” value does the source give for VAPB C173 (UniProt O95292) here?
Its value is -0.124.

For ULK3 C308 (UniProt Q6PHR2), which “log2 mean competition ratio” value is on record?
Its value is -0.138.

How did the “log2 mean competition ratio” value turn out when UTRN C862 (UniProt P46939) was run?
The value was 0.291.
